Assay results: PubChem BioAssay AID493014 (National Center for Advancing Translational Sciences (NCATS), 2011)
About 170 (0.05%) of roughly 340,000 compounds were called active. The inconclusive results got no clear call from the source; some entries with a clear call stand among them for comparison. Calls follow the shape of the dose curve; as a rule, active = well fitted inhibition curve with a large enough effect in the signal ratio, with a control signal flat (not every such curve was filed as active); inconclusive = small, poorly fitted or top-dose-only effect, or effect the other way, or a change in a side signal; inactive = flat fitted curve, though single readings scatter; the % refers to the signal ratio. Where the call is inconclusive, the potency comes from a doubtful curve fit.

test: qHTS Assay to Find Inhibitors of Chronic Active B-Cell Receptor Signaling; conditions: ABC-DLBCL IkBa-CBG/CBR reporter, luminescence ratio (green luciferase fused to IkBa over red control in TMD8 lymphoma cells), 4 h; activity change, negative = inhibition: at 46.1 µM (top of the series);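 as to activity change, negative = inhibition: plate controls were basal doxycycline-induced cells for no effect and cells given 10 µM MG132 for full effect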
Outline: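 Doxycycline induced both beetle luciferases in TMD8 lymphoma cells; IKK-driven degradation limits the IkappaBalpha-fused green signal, while red luminescence normalises for cell number and nonspecific effects. Compounds tested up to 46 uM, 4 hrs.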
Potency is read from the fitted curve at half-maximal effect.

**Q.** With COc1ccc(/C=C/C(=O)O)cc1S(=O)(=O)N1CCc2ccccc21 as the compound, how does the activity change, negative = inhibition read?
**A.** Its activity change, negative = inhibition is inconclusive: 15.4%.

**Q.** For O=C(CN1CCCC1)N1CCCC(c2ccc(F)cc2)c2ccc(F)cc21 (configuration not stated), which activity change, negative = inhibition is on record?
**A.** The activity change, negative = inhibition was inconclusive: -10.2%.

**Q.** Which activity change, negative = inhibition does the source give for CC1=NN(c2ccccc2)C(=O)C1C=Nc1ccc(N(C)C)cc1 (configuration not stated) here?
**A.** Its activity change, negative = inhibition is “inactive”.

**Q.** With CNS(=O)(=O)c1cccc(C(=O)OCC(=O)NC2CCCC(C)C2C)c1 (configuration not stated) as the compound, how does the activity change, negative = inhibition read?
**A.** The activity change, negative = inhibition was inconclusive: 7.67%.

**Q.** For COc1ccc(C(=O)NCC(=O)OCC(=O)Nc2cc([N+](=O)[O-])ccc2F)cc1, which activity change, negative = inhibition is on record?
**A.** The activity change, negative = inhibition was “inactive”.

**Q.** With CCC(=O)Nc1nc2ccccc2n1CCN(CC)CC as the compound, how does the activity change, negative = inhibition read?
**A.** Its activity change, negative = inhibition is “inactive”.

**Q.** With O=C(NCCc1c[nH]c2ccccc12)c1cc(S(=O)(=O)N2CCCCC2)ccc1N1CCOCC1 as the compound, how does the activity change, negative = inhibition read?
**A.** Its activity change, negative = inhibition is “inactive”.

**Q.** Which activity change, negative = inhibition does the source give for N=c1occ(C(=O)c2cc(F)ccc2O)cc1C(=O)NC1CCCCC1 here?
**A.** Its activity change, negative = inhibition is inconclusive: -17.4%.

**Q.** For C=C(C)c1cccc(C(C)(C)NC(=O)N2CCC(C)CC2)c1, which activity change, negative = inhibition is on record?
**A.** The activity change, negative = inhibition was inconclusive: -21.8%.

**Q.** For CCOCc1nnc(NC(=O)c2cccs2)s1, which activity change, negative = inhibition is on record?
**A.** Its activity change, negative = inhibition is inconclusive: -2.74%.

**Q.** With CC(=O)c1ccc(N2Cc3ccccc3C2=NC(=O)c2cccs2)cc1 as the compound, how does the Potency read?
**A.** Its Potency is inconclusive: 16.4 µM [falling, single point].

**Q.** For COc1ccc(-c2csc(Cc3nnc(N4CCOCC4)n3-c3ccccc3)n2)cc1OC, which activity change, negative = inhibition is on record?
**A.** Its activity change, negative = inhibition is inconclusive: -14.5%.

**Q.** Which Potency does the source give for Cc1ccc(-c2nnc(Nc3cccc(O)c3)c3ccccc23)cc1S(=O)(=O)NCCO here?
**A.** Its Potency is inconclusive: 15.8 µM [falling, partial curve].

**Q.** For CCOC(=O)C1CCN(CC(=O)Nc2c(C(=O)OC)[nH]c3ccc(Cl)cc23)CC1, which activity change, negative = inhibition is on record?
**A.** Its activity change, negative = inhibition is inconclusive: -8.33%.

**Q.** With COc1ccccc1NC(=O)N1CCn2c(nc3ccccc32)C1 as the compound, how does the activity change, negative = inhibition read?
**A.** The activity change, negative = inhibition was inconclusive: -23%.

**Q.** With COc1ccc(/C=C(/NC(=O)c2cccc([N+](=O)[O-])c2)C(=O)O)cc1 as the compound, how does the activity change, negative = inhibition read?
**A.** Its activity change, negative = inhibition is “inactive”.

**Q.** With CCCCNc1c(-c2ccc(SC(C)CC)c(OC)c2)nc2ccc(Cl)cn12 (configuration not stated) as the compound, how does the activity change, negative = inhibition read?
**A.** The activity change, negative = inhibition was “inactive”.

**Q.** Which activity change, negative = inhibition does the source give for CCOC(=O)c1c(NC(=O)c2ccn(CC)n2)sc2c1CCC2 here?
**A.** The activity change, negative = inhibition was “inactive”.

**Q.** For Cc1cc(SCC#N)n2nc(C)c(-c3ccc(Cl)cc3)c2n1, which Potency is on record?
**A.** Its Potency is inconclusive: 0.461 µM [falling, full curve].

**Q.** Which activity change, negative = inhibition does the source give for CCCC(C(=O)NCc1ccco1)N(C(=O)CNS(=O)(=O)c1ccc(Cl)cc1)C1CCCC1 (configuration not stated) here?
**A.** The activity change, negative = inhibition was inconclusive: -8.61%.

**Q.** For Cc1ccc(S(=O)(=O)N2CCC(C(=O)OCC(=O)NCc3ccco3)CC2)cc1C, which activity change, negative = inhibition is on record?
**A.** The activity change, negative = inhibition was inconclusive: 8.09%.

**Q.** With O=C(Oc1ccc(Cl)cc1)N1CCCCC1 as the compound, how does the activity change, negative = inhibition read?
**A.** Its activity change, negative = inhibition is inconclusive: 6.32%.

**Q.** Which Potency does the source give for O=C(c1ccc(Br)cc1)c1cc([N+](=O)[O-])ccc1N1CCOCC1 here?
**A.** The Potency was inconclusive: 28.2 µM [falling, single point].

**Q.** For COc1ccccc1C(=O)Nc1ccc2[nH]ncc2c1, which activity change, negative = inhibition is on record?
**A.** Its activity change, negative = inhibition is inconclusive: -23.1%.

**Q.** Which activity change, negative = inhibition does the source give for Nn1c(Cc2cccc3ccccc23)nnc1SC1CCOC1=O (configuration not stated) here?
**A.** Its activity change, negative = inhibition is inconclusive: 12.7%.

**Q.** Which activity change, negative = inhibition does the source give for O=C(Nc1ccccc1)N1CCSCC1 here?
**A.** Its activity change, negative = inhibition is inconclusive: 0.632%.

**Q.** For CCN1CCCc2cc(CN(CCN3CCOCC3)C(=S)Nc3cc(F)cc(F)c3)ccc21, which activity change, negative = inhibition is on record?
**A.** The activity change, negative = inhibition was inconclusive: 2.08%.

**Q.** Which activity change, negative = inhibition does the source give for COc1cc(C(=O)Oc2cc(N)n(S(=O)(=O)c3ccc(F)cc3)n2)cc(OC)c1OC here?
**A.** The activity change, negative = inhibition was inconclusive: -8.42%.

**Q.** With COC(=O)c1ccc(NC(=O)c2cc3sccc3n2C)cc1 as the compound, how does the activity change, negative = inhibition read?
**A.** The activity change, negative = inhibition was inconclusive: 0.007%.

**Q.** For CN(C)c1ccc(-c2sc(Nc3ccccc3)n[n+]2-c2ccc(F)cc2)cc1, which Potency is on record?
**A.** The Potency was inconclusive: 1.41 µM [falling, full curve, poor fit].

**Q.** With CC[C@@H]1[C@H]2CCCC(=O)N3CC[C@@H](C[C@@H]1OC(=O)Nc1ccccc1)[C@@H]23 as the compound, how does the activity change, negative = inhibition read?
**A.** Its activity change, negative = inhibition is “inactive”.

**Q.** Which activity change, negative = inhibition does the source give for CC1CCCN(CCCNC(=O)c2nn(C)c3c2CS(=O)(=O)c2ccccc2-3)C1 (configuration not stated) here?
**A.** Its activity change, negative = inhibition is “inactive”.

**Q.** With COc1ccc(/C=C/C(=O)c2ccc(OC)cc2OC)c(OC)c1 as the compound, how does the Potency read?
**A.** Its Potency is inconclusive: 6.31 µM [falling, partial curve, poor fit].

**Q.** Which activity change, negative = inhibition does the source give for Cc1cc(O)c(C=O)c2c1C(=O)Oc1c(CO)c(O)c3c(c1O2)C(O)OC3=O (configuration not stated) here?
**A.** The activity change, negative = inhibition was “inactive”.

**Q.** For OCCN(CCO)c1nc(N2CCCCC2)c2nc(N(CCO)CCO)nc(N3CCCCC3)c2n1, which activity change, negative = inhibition is on record?
**A.** Its activity change, negative = inhibition is inconclusive: -9.21%.

**Q.** For CNc1nc(SCC(=O)OC)nc(N2CCOCC2)n1, which Potency is on record?
**A.** Its Potency is inconclusive: 15.8 µM [falling, partial curve, poor fit].

**Q.** Which activity change, negative = inhibition does the source give for COc1ccc(NC(=O)NCCCN2CCN(c3ccccc3F)CC2)cc1 here?
**A.** The activity change, negative = inhibition was “inactive”.

**Q.** Which activity change, negative = inhibition does the source give for COC(=O)c1c(NC(=O)C(C)(C)C)csc1C here?
**A.** The activity change, negative = inhibition was inconclusive: 2.45%.

**Q.** With CCn1c(COc2ccc3c(c2)CCCC3)nnc1SCC(=O)Nc1ccc(C(=O)OC)cc1 as the compound, how does the activity change, negative = inhibition read?
**A.** Its activity change, negative = inhibition is inconclusive: 4.61%.

**Q.** For CCN(CC)C(=O)COc1ccc(/C(C)=N/Nc2ncc(Cl)cc2Cl)cc1, which Potency is on record?
**A.** The Potency was inconclusive: 35.5 µM [cytotoxic, single point].

**Q.** For N#Cc1ccc(-c2ccc(OCC(=O)NCCc3ccccc3)cc2)cc1, which activity change, negative = inhibition is on record?
**A.** Its activity change, negative = inhibition is inconclusive: -16%.

**Q.** For Cc1ccc(-n2cc(CNCCCn3cccn3)c(-c3cccc(C)c3)n2)cc1, which activity change, negative = inhibition is on record?
**A.** The activity change, negative = inhibition was “inactive”.

**Q.** Which Potency does the source give for O=c1cc(-c2ccsc2)oc2ccc(-c3ccc4cc[nH]c4c3)cc12 here?
**A.** Its Potency is inconclusive: 18.4 µM [falling, single point].

**Q.** With COc1ccc(/C=C/C(=O)c2ccc(O)cc2)cc1COc1ccc(F)cc1 as the compound, how does the Potency read?
**A.** The Potency was inconclusive: 15.8 µM [falling, partial curve].

**Q.** For CCn1cc(C(=O)N[C@H](C(=O)NCCCO)C(C)C)c(=O)c2cc3c(cc21)OCO3, which activity change, negative = inhibition is on record?
**A.** The activity change, negative = inhibition was inconclusive: 7.17%.

**Q.** With CC(C)Cc1nnc(NC(=O)c2cc3c(s2)CCC3)s1 as the compound, how does the activity change, negative = inhibition read?
**A.** Its activity change, negative = inhibition is inconclusive: 11.2%.

**Q.** With Cc1cccc(OCC(=O)N/N=C/c2ccc3c(c2)OCO3)c1 as the compound, how does the Potency read?
**A.** Its Potency is inconclusive: 35.5 µM [falling, single point].

**Q.** With COc1cc(NC(=O)Cn2c(-c3ccccc3)cc(C(C)=O)c2C)cc(OC)c1 as the compound, how does the activity change, negative = inhibition read?
**A.** Its activity change, negative = inhibition is inconclusive: 8.09%.

**Q.** For CSCCC(NC(=O)c1ccccc1Br)C(=O)NCC1CCCCC1 (configuration not stated), which Potency is on record?
**A.** Its Potency is inconclusive: 5.62 µM [falling, single point].

**Q.** With CCN(CC)CCCNC(=O)c1cc2c(Cl)nc3ccccc3c2s1 as the compound, how does the activity change, negative = inhibition read?
**A.** The activity change, negative = inhibition was inconclusive: 11.1%.

**Q.** With COc1ccc(/C=C/C(=O)N(CCC(N)=O)c2ccccc2)cc1S(=O)(=O)N1CCOCC1 as the compound, how does the activity change, negative = inhibition read?
**A.** Its activity change, negative = inhibition is “inactive”.

**Q.** For CN(CCNC(=O)c1cc2c(-c3ccccc3F)nn(C)c2s1)C1CCCCC1, which activity change, negative = inhibition is on record?
**A.** Its activity change, negative = inhibition is inconclusive: -8.95%.
